This assay deals with Neuropilin 1 (NRP1) (human (endogenous in ASCs)) (UniProt O14786). In words: co-IP; ASCs untreated or treated with 20 ng/ml KGF for 5 min, lysed in RIPA buffer; 800 ug lysate immunoprecipitated with anti-NRP1 antibody overnight at 4°C, Protein A/G PLUS-Agarose; blotted with anti-FGF7 and anti-NRP1; only the binder purified.

Protein sequences, listed by entry. Tags and fused reporters are not part of them. Residues count along the entry.
UniProt O14786, residues 22-923: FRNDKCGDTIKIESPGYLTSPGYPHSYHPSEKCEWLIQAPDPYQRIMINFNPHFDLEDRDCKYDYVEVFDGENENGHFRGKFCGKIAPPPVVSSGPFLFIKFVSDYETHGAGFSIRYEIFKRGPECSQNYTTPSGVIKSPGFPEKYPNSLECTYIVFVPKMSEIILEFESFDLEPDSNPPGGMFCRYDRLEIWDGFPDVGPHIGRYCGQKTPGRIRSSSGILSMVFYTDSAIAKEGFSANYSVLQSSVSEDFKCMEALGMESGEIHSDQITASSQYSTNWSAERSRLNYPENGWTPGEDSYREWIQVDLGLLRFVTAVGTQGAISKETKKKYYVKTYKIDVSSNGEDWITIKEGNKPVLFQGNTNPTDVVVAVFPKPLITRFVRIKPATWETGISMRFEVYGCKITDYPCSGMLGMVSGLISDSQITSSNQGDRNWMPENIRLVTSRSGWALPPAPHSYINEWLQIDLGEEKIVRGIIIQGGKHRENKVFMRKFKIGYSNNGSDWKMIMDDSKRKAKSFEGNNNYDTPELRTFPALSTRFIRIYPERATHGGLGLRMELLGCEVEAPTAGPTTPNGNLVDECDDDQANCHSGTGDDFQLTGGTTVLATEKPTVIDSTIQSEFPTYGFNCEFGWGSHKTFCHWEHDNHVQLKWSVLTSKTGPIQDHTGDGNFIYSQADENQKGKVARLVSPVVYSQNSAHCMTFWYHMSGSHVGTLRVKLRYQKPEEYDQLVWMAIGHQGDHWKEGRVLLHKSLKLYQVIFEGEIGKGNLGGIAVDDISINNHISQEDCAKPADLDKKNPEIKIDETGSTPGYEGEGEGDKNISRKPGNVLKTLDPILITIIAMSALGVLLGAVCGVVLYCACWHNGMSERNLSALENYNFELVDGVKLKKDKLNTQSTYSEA

These are yes or no findings as the source states them, for the method shown. Binding seen in cells or lysates may run through a third protein. Some results given as binding are weak or reduced against the parent protein; the word gives no strength.

B1: Keratinocyte growth factor (KGF) (ligand, UniProt P21781 32-194)
chain: CNDMTPEQMATNVNCSSPERHTRSYDYMEGGDIRVRRLFCRTQWYLRIDKRGKVKGTQEMKNNYNIMEIRTVAVGIVAIKGVESEFYLAMNKEGKLYAKKECNEDCNFKELILENHYNTYASAKWTHNGGEMFVALNQKGIPVRGKKTKKEQKTAHFLPMAIT
Take B1: the binding result was “binds”.
